± gives the standard deviation of the averaged measurements. Differences between knockout arms are mostly noise.
System: MDA-MB-231
Experiment: relative cell number vs DMSO control (72 h) (% of DMSO); higher = less growth inhibition (more cells)
Description: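 QMAP-Seq: a pool of 5 breast cancer cell lines (ZR-75-1, SKBR3, HCC-38, MDA-MB-231, BT-20), each carrying 12 doxycycline-inducible Cas9 sgRNA perturbations (11 knockouts plus non-targeting sgNT), was treated with compounds for 72 h at four 10-fold doses (10 nM-10 uM or 1 nM-1 uM range). Barcodes were amplified and sequenced, and cell number was interpolated from 293T spike-in standard curves. The result is expressed as % of the median of DMSO wells. Two biological replicates.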

CCOC(=O)[C@@]1(CCCCCCOc2ccc(Cl)cc2)CO1 [Etomoxir]
Conditions	relative cell number
sgRNA knockout: sgATF3, 10 nM	95.7 ± 43
sgRNA knockout: sgATF3, 100 nM	104 ± 19
sgRNA knockout: sgATF3, 1000 nM	92.6 ± 2.8
sgRNA knockout: sgATF3, 10000 nM	79.7 ± 3.8
sgRNA knockout: sgATF4, 10 nM	101 ± 11
sgRNA knockout: sgATF4, 100 nM	161 ± 24
sgRNA knockout: sgATF4, 1000 nM	152 ± 30
sgRNA knockout: sgATF4, 10000 nM	113 ± 6.2
sgRNA knockout: sgATF6, 10 nM	93 ± 2.2
sgRNA knockout: sgATF6, 100 nM	94.6 ± 29
sgRNA knockout: sgATF6, 1000 nM	98.3 ± 16
sgRNA knockout: sgATF6, 10000 nM	98.3 ± 34
sgRNA knockout: sgATG7, 10 nM	98.73 ± 0.22
sgRNA knockout: sgATG7, 100 nM	99.8 ± 4.7
sgRNA knockout: sgATG7, 1000 nM	101.2 ± 0.49
sgRNA knockout: sgATG7, 10000 nM	79.73 ± 0.33
sgRNA knockout: sgERN1, 10 nM	86.9 ± 13
sgRNA knockout: sgERN1, 100 nM	106 ± 26
sgRNA knockout: sgERN1, 1000 nM	77.8 ± 8.7
sgRNA knockout: sgERN1, 10000 nM	90.6 ± 2.2
sgRNA knockout: sgHSF1, 10 nM	97.6 ± 9.8
sgRNA knockout: sgHSF1, 100 nM	111 ± 16
sgRNA knockout: sgHSF1, 1000 nM	114 ± 1.3
sgRNA knockout: sgHSF1, 10000 nM	91.5 ± 9
sgRNA knockout: sgHSF2, 10 nM	97.4 ± 24
sgRNA knockout: sgHSF2, 100 nM	107 ± 37
sgRNA knockout: sgHSF2, 1000 nM	100 ± 20
sgRNA knockout: sgHSF2, 10000 nM	95.8 ± 11
sgRNA knockout: sgKEAP1, 10 nM	98.25 ± 0.36
sgRNA knockout: sgKEAP1, 100 nM	93.5 ± 14
sgRNA knockout: sgKEAP1, 1000 nM	99.5 ± 15
sgRNA knockout: sgKEAP1, 10000 nM	93.4 ± 1.9
sgRNA knockout: sgNFE2L2, 10 nM	95.4 ± 10
sgRNA knockout: sgNFE2L2, 100 nM	125.3 ± 0.65
sgRNA knockout: sgNFE2L2, 1000 nM	118.3 ± 0.64
sgRNA knockout: sgNFE2L2, 10000 nM	98.4 ± 20
sgRNA knockout: sgSLC35F2, 10 nM	97 ± 8.6
sgRNA knockout: sgSLC35F2, 100 nM	83.8 ± 1.6
sgRNA knockout: sgSLC35F2, 1000 nM	108 ± 5.4
sgRNA knockout: sgSLC35F2, 10000 nM	101.8 ± 0.11
sgRNA knockout: sgXBP1, 10 nM	93.14 ± 0.25
sgRNA knockout: sgXBP1, 100 nM	106.2 ± 0.58
sgRNA knockout: sgXBP1, 1000 nM	98.2 ± 13
sgRNA knockout: sgXBP1, 10000 nM	77.3 ± 15

COc1cc([C@@H]2c3cc4c(cc3[C@@H](O[C@@H]3O[C@@H]5CO[C@@H](C)O[C@H]5[C@H](O)[C@H]3O)[C@H]3COC(=O)[C@H]23)OCO4)cc(OC)c1O [Etoposide]
Conditions	relative cell number
sgRNA knockout: sgATF3, 10 nM	71.5 ± 43
sgRNA knockout: sgATF3, 100 nM	73.9 ± 2.4
sgRNA knockout: sgATF3, 1000 nM	32.6 ± 0.89
sgRNA knockout: sgATF3, 10000 nM	12.1 ± 2.6
sgRNA knockout: sgATF4, 10 nM	60.84 ± 0.21
sgRNA knockout: sgATF4, 100 nM	85.1 ± 3.1
sgRNA knockout: sgATF4, 1000 nM	32.5 ± 5.1
sgRNA knockout: sgATF4, 10000 nM	19.7 ± 4.4
sgRNA knockout: sgATF6, 10 nM	84.5 ± 22
sgRNA knockout: sgATF6, 100 nM	77.7 ± 7.3
sgRNA knockout: sgATF6, 1000 nM	20 ± 1.8
sgRNA knockout: sgATF6, 10000 nM	9.93 ± 5.3
sgRNA knockout: sgATG7, 10 nM	79.8 ± 6.8
sgRNA knockout: sgATG7, 100 nM	69.5 ± 10
sgRNA knockout: sgATG7, 1000 nM	30.9 ± 3.7
sgRNA knockout: sgATG7, 10000 nM	10.5 ± 0.92
sgRNA knockout: sgERN1, 10 nM	73 ± 30
sgRNA knockout: sgERN1, 100 nM	70.51 ± 0.66
sgRNA knockout: sgERN1, 1000 nM	18.9 ± 9.3
sgRNA knockout: sgERN1, 10000 nM	8.61 ± 3.9
sgRNA knockout: sgHSF1, 10 nM	58.8 ± 9.7
sgRNA knockout: sgHSF1, 100 nM	60.8 ± 9.5
sgRNA knockout: sgHSF1, 1000 nM	21 ± 3.6
sgRNA knockout: sgHSF1, 10000 nM	12.5 ± 7.4
sgRNA knockout: sgHSF2, 10 nM	78.4 ± 15
sgRNA knockout: sgHSF2, 100 nM	61 ± 8.3
sgRNA knockout: sgHSF2, 1000 nM	31 ± 2.4
sgRNA knockout: sgHSF2, 10000 nM	9.69 ± 2.2
sgRNA knockout: sgKEAP1, 10 nM	64 ± 7.4
sgRNA knockout: sgKEAP1, 100 nM	74.1 ± 2.8
sgRNA knockout: sgKEAP1, 1000 nM	21.4 ± 4.5
sgRNA knockout: sgKEAP1, 10000 nM	10.5 ± 4.1
sgRNA knockout: sgNFE2L2, 10 nM	43.7 ± 12
sgRNA knockout: sgNFE2L2, 100 nM	54.6 ± 0.6
sgRNA knockout: sgNFE2L2, 1000 nM	14.1 ± 3.4
sgRNA knockout: sgNFE2L2, 10000 nM	7.83 ± 2.7
sgRNA knockout: sgSLC35F2, 10 nM	69.2 ± 9.6
sgRNA knockout: sgSLC35F2, 100 nM	78.6 ± 4.4
sgRNA knockout: sgSLC35F2, 1000 nM	24.5 ± 2.2
sgRNA knockout: sgSLC35F2, 10000 nM	12.1 ± 1.6
sgRNA knockout: sgXBP1, 10 nM	46.6 ± 3
sgRNA knockout: sgXBP1, 100 nM	72.5 ± 4
sgRNA knockout: sgXBP1, 1000 nM	20.5 ± 0.8
sgRNA knockout: sgXBP1, 10000 nM	11.3 ± 6.4

CO[C@H]1C[C@@H]2CC[C@@H](C)[C@@](O)(O2)C(=O)C(=O)N2CCCC[C@H]2C(=O)O[C@H]([C@H](C)C[C@@H]2CC[C@@H](OCCO)[C@H](OC)C2)CC(=O)[C@H](C)/C=C(\C)[C@@H](O)[C@@H](OC)C(=O)[C@H](C)C[C@H](C)/C=C/C=C/C=C/1C [Everolimus]
Conditions	relative cell number
sgRNA knockout: sgATF3, 1 nM	90.5 ± 6
sgRNA knockout: sgATF3, 10 nM	74.9 ± 7.7
sgRNA knockout: sgATF3, 100 nM	78.7 ± 18
sgRNA knockout: sgATF3, 1000 nM	94.4 ± 17
sgRNA knockout: sgATF4, 1 nM	87.6 ± 26
sgRNA knockout: sgATF4, 10 nM	54.3 ± 22
sgRNA knockout: sgATF4, 100 nM	80.1 ± 4.9
sgRNA knockout: sgATF4, 1000 nM	99 ± 8.1
sgRNA knockout: sgATF6, 1 nM	82.7 ± 16
sgRNA knockout: sgATF6, 10 nM	53.01 ± 0.46
sgRNA knockout: sgATF6, 100 nM	108 ± 18
sgRNA knockout: sgATF6, 1000 nM	91.2 ± 1.1
sgRNA knockout: sgATG7, 1 nM	65.2 ± 4
sgRNA knockout: sgATG7, 10 nM	62.5 ± 3.4
sgRNA knockout: sgATG7, 100 nM	72.9 ± 4.4
sgRNA knockout: sgATG7, 1000 nM	68.4 ± 17
sgRNA knockout: sgERN1, 1 nM	80 ± 21
sgRNA knockout: sgERN1, 10 nM	77.9 ± 16
sgRNA knockout: sgERN1, 100 nM	72.5 ± 3.9
sgRNA knockout: sgERN1, 1000 nM	62 ± 0.93
sgRNA knockout: sgHSF1, 1 nM	65.7 ± 10
sgRNA knockout: sgHSF1, 10 nM	74 ± 15
sgRNA knockout: sgHSF1, 100 nM	83.5 ± 2.5
sgRNA knockout: sgHSF1, 1000 nM	82.7 ± 8.5
sgRNA knockout: sgHSF2, 1 nM	78.6 ± 25
sgRNA knockout: sgHSF2, 10 nM	72.19 ± 0.42
sgRNA knockout: sgHSF2, 100 nM	92.8 ± 4.4
sgRNA knockout: sgHSF2, 1000 nM	80.89 ± 0.3
sgRNA knockout: sgKEAP1, 1 nM	73.5 ± 2.8
sgRNA knockout: sgKEAP1, 10 nM	64.6 ± 8.1
sgRNA knockout: sgKEAP1, 100 nM	80.1 ± 5.1
sgRNA knockout: sgKEAP1, 1000 nM	90.4 ± 11
sgRNA knockout: sgNFE2L2, 1 nM	77.2 ± 4.5
sgRNA knockout: sgNFE2L2, 10 nM	57.3 ± 9.1
sgRNA knockout: sgNFE2L2, 100 nM	83.9 ± 4.9
sgRNA knockout: sgNFE2L2, 1000 nM	83.1 ± 46
sgRNA knockout: sgSLC35F2, 1 nM	83.8 ± 21
sgRNA knockout: sgSLC35F2, 10 nM	84.6 ± 11
sgRNA knockout: sgSLC35F2, 100 nM	103 ± 4.2
sgRNA knockout: sgSLC35F2, 1000 nM	76.9 ± 7.6
sgRNA knockout: sgXBP1, 1 nM	73.86 ± 0.16
sgRNA knockout: sgXBP1, 10 nM	63.5 ± 6.7
sgRNA knockout: sgXBP1, 100 nM	87.9 ± 7.8
sgRNA knockout: sgXBP1, 1000 nM	75.4 ± 6.2
